For part of these data: No signal at the amounts used counts as a negative. For part of these data: Weaker means in comparison with the reference protein, sequence or condition of that experiment.
Legend:
[1] = target: Glycated human serum albumin (GHSA) (Homo sapiens) (UniProt P02768); test: ELONA; details: purified native protein; label: 5' biotin; single-stranded DNA
[2] = target: Glycated human serum albumin (GHSA) (Homo sapiens) (UniProt P02768); test: EMSA; details: lower affinity than G8; indirect ELISA + at 200, 20, 2 nM, - at 0.2 nM (Table 9); purified native protein; label: 5' biotin; single-stranded DNA
[3] = target: Human serum albumin (HSA) (Homo sapiens) (UniProt P02768); test: ELONA; details: purified native protein; label: 5' biotin; single-stranded DNA

“ATACCAGCTTATTCAATTCGCGCACATATACAGGGCTTTACCAGCGGGGAAGGTTAGCGACGCGAGGGGGAGATAGTAAGTGCAATCT [H14]”: no binding [1].
“TAACTCACTCCATACTCACTTGCTGATTCGCCAACAACACACCCTTAAACAGTCCC [clone 9]”: binds more weakly [2].
“TCCCCCCATCACACCCAAGCCGCAGCCACCGACATAGCAAGCATTGTCTTTCC [G12]”: no binding [3].

— patent US9834772
